The structures given here were assigned with low confidence; some may be wrong.
Molecular target: VCAM-1/α4β1 integrin binding (Homo sapiens, UniProt P05556+P13612)
Assay: Assay of antagonistic activity to VCAM-1/α4β1 integrin binding under the existence of blood serum (Jurkat cell adhesion to VCAM-1/Fc)
Settings: read-out: IC50, antagonistic activity to VCAM-1/α4β1 integrin binding; Jurkat cells, recombinant human VCAM-1/Fc, 50% human blood serum; tested form: TFA
Procedure: Assay of Antagonistic Activity to VCAM-1/α4β1 Integrin Binding Under the Existence of Blood Serum
The capacity of a test substance antagonistic to the binding of cell strain of human T cells, Jurkat (ATCC TIB-152), known to express integrin α4β1, to VCAM-1 was determined.
Fifty μl/well of a solution (500 ng/ml) of recombinant human VCAM-1/Fc (R & D systems) diluted with buffer A (0.1 M NaHCO3, pH 9.6) was added to a 96-well microtiter plate (Nunc Maxisorp). After the incubation at 4° C. overnight and washing once with PBS, a buffer (buffer B) obtained by diluting Block Ace (Snow Brand Milk Products Co., Ltd.) with PBS to ½ concentration was added in an amount of 150 μl/well. After the incubation at room temperature for 2 hours, buffer B was removed and the plate was washed with PBS once.
Jurkat cells were washed with Dulbecco modified Eagle medium (SIGMA, hereinafter referred to as “DMEM”) once. […]
Sixty μl of a test substance of various concentrations obtained by the dilution with the binding buffer was added to a round-bottom, 96-well plate (IWAKI). […] Its absorbance of 490 nm was determined with a plate reader (Molecular Devices, Vmax). The absorbance thus obtained detects an activity of lactate dehydrogenase (LDH) dissolved in the supernatant of each well. Namely, the absorbance is proportional to the number of remaining Jurkat cells on the plate via the binding to VCAM-1. […]

The chains behind the UniProt entries cited, without tags or fusion partners. Residues count along the entry.
UniProt P05556, 21-798 limits assumed: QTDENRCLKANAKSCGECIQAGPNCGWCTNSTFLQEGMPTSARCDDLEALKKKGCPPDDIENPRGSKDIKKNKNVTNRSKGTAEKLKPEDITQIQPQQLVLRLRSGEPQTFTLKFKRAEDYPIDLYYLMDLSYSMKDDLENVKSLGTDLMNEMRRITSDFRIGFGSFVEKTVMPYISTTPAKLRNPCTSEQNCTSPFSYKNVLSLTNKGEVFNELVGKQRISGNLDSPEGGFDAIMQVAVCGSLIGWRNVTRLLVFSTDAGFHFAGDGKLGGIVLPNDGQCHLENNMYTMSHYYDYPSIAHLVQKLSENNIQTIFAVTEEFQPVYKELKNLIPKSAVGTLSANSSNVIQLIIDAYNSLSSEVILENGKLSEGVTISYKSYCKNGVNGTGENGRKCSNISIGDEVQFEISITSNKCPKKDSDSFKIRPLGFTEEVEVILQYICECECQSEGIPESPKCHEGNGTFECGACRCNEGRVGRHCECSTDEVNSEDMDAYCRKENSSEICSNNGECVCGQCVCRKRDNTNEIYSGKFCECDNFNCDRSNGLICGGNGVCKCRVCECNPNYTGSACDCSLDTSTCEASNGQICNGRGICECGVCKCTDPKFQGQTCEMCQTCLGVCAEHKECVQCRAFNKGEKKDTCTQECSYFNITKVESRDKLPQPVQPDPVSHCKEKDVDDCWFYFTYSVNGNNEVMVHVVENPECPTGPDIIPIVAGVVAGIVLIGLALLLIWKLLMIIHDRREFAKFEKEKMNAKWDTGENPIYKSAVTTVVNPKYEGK
UniProt P13612, 34-1032 limits assumed: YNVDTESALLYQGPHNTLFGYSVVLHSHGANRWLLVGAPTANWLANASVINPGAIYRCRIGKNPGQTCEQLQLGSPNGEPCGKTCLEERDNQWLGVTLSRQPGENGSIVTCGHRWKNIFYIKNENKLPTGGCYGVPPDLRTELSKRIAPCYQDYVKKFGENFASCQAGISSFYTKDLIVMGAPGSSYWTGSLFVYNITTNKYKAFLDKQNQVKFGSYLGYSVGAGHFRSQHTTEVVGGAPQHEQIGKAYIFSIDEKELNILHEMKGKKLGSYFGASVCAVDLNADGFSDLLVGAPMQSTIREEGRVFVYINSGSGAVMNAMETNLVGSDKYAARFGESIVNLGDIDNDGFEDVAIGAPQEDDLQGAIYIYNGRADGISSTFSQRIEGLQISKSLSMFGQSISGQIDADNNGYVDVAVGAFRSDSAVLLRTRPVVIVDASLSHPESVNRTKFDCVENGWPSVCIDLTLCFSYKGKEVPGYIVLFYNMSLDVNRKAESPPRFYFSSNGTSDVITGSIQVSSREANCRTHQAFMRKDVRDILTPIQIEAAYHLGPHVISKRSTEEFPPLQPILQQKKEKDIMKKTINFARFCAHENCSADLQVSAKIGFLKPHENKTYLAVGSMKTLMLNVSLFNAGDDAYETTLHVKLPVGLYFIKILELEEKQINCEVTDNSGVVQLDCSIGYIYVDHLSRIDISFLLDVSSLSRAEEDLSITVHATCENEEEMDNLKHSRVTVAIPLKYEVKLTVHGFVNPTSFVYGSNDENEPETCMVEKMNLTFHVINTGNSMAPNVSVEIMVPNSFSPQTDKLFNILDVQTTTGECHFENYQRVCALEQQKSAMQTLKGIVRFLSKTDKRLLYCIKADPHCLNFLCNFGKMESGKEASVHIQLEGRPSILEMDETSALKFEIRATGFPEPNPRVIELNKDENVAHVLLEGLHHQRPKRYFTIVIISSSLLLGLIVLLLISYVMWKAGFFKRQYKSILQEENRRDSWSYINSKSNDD

IC50: 6.4 nM
Structure (SMILES): CC(C)CNCc1ccc2c(c1)c(=O)n(-c1ccc(C[C@H](NC(=O)c3c(Cl)cccc3Cl)C(=O)O)cc1)c(=O)n2C

Reference: US7345049B2, “Phenylalanine derivatives” (Ajinomoto Co., Inc., priority 2003, dated 2008)
